Reference: PMC7949109, “Trans-2-enoyl-CoA reductase limits Ca^2+ accumulation in the endoplasmic reticulum by inhibiting the Ca^2+ pump SERCA2b” (The Journal of Biological Chemistry, 2021)
No constants are given. Whether binding was seen depends on the method and setting. Binding seen in cells or lysates may run through a third protein. A yes stands for co-enrichment or nearness to the bait. Other partners may have been found. Tags and fused reporters may be left off the sequences shown.

By UniProt entry, the sequences of proteins in these tests, tags left out.
UniProt Q92621: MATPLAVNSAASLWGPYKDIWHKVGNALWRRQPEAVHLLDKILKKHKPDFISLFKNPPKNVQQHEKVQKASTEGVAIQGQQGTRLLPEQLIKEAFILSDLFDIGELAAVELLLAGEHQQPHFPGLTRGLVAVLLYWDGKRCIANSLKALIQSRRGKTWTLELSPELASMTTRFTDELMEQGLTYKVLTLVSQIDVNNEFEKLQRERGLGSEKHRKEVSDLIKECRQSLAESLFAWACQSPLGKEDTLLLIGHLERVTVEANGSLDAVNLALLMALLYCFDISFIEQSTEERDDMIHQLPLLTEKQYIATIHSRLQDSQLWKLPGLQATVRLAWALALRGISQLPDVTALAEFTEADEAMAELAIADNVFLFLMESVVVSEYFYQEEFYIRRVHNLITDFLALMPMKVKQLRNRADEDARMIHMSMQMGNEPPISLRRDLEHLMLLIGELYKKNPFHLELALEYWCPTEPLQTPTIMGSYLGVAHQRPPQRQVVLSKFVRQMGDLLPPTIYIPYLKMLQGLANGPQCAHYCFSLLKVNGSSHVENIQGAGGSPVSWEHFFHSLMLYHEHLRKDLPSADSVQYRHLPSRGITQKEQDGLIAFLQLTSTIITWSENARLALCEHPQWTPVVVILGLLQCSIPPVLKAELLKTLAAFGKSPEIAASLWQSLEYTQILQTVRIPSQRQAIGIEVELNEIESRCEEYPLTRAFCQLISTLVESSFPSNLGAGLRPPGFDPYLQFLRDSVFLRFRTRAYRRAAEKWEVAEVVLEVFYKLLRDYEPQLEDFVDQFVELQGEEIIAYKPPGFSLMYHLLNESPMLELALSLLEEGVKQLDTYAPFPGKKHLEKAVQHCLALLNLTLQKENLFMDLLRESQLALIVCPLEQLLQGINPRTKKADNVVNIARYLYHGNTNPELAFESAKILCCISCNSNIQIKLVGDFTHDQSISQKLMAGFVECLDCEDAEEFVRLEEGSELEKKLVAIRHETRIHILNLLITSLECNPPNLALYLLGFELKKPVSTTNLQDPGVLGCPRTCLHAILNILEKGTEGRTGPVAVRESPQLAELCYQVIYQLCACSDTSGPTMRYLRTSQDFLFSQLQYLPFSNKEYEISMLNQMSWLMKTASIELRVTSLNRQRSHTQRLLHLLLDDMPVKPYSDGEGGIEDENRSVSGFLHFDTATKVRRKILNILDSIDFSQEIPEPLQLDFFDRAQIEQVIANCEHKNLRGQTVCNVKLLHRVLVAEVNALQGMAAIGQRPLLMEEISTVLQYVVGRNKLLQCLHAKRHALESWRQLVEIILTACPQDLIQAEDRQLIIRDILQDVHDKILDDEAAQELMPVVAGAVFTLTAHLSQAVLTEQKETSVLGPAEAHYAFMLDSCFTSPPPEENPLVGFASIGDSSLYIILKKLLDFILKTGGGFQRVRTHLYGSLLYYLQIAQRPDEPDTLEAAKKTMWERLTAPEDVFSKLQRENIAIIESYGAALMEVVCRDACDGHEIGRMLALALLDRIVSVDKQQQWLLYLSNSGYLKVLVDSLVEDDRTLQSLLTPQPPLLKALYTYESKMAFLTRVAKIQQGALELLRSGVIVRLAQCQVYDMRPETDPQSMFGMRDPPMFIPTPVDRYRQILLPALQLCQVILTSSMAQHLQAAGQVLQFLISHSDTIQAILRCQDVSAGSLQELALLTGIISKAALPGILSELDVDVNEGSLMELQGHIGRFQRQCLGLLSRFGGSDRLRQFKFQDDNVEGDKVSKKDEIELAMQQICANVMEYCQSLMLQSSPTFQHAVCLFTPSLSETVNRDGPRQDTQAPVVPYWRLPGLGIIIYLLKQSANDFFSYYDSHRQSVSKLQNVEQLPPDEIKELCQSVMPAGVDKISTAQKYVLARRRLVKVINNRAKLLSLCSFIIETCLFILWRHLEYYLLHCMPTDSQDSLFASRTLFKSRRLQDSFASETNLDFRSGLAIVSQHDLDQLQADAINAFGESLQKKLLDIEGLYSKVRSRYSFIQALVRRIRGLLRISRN
UniProt P78527: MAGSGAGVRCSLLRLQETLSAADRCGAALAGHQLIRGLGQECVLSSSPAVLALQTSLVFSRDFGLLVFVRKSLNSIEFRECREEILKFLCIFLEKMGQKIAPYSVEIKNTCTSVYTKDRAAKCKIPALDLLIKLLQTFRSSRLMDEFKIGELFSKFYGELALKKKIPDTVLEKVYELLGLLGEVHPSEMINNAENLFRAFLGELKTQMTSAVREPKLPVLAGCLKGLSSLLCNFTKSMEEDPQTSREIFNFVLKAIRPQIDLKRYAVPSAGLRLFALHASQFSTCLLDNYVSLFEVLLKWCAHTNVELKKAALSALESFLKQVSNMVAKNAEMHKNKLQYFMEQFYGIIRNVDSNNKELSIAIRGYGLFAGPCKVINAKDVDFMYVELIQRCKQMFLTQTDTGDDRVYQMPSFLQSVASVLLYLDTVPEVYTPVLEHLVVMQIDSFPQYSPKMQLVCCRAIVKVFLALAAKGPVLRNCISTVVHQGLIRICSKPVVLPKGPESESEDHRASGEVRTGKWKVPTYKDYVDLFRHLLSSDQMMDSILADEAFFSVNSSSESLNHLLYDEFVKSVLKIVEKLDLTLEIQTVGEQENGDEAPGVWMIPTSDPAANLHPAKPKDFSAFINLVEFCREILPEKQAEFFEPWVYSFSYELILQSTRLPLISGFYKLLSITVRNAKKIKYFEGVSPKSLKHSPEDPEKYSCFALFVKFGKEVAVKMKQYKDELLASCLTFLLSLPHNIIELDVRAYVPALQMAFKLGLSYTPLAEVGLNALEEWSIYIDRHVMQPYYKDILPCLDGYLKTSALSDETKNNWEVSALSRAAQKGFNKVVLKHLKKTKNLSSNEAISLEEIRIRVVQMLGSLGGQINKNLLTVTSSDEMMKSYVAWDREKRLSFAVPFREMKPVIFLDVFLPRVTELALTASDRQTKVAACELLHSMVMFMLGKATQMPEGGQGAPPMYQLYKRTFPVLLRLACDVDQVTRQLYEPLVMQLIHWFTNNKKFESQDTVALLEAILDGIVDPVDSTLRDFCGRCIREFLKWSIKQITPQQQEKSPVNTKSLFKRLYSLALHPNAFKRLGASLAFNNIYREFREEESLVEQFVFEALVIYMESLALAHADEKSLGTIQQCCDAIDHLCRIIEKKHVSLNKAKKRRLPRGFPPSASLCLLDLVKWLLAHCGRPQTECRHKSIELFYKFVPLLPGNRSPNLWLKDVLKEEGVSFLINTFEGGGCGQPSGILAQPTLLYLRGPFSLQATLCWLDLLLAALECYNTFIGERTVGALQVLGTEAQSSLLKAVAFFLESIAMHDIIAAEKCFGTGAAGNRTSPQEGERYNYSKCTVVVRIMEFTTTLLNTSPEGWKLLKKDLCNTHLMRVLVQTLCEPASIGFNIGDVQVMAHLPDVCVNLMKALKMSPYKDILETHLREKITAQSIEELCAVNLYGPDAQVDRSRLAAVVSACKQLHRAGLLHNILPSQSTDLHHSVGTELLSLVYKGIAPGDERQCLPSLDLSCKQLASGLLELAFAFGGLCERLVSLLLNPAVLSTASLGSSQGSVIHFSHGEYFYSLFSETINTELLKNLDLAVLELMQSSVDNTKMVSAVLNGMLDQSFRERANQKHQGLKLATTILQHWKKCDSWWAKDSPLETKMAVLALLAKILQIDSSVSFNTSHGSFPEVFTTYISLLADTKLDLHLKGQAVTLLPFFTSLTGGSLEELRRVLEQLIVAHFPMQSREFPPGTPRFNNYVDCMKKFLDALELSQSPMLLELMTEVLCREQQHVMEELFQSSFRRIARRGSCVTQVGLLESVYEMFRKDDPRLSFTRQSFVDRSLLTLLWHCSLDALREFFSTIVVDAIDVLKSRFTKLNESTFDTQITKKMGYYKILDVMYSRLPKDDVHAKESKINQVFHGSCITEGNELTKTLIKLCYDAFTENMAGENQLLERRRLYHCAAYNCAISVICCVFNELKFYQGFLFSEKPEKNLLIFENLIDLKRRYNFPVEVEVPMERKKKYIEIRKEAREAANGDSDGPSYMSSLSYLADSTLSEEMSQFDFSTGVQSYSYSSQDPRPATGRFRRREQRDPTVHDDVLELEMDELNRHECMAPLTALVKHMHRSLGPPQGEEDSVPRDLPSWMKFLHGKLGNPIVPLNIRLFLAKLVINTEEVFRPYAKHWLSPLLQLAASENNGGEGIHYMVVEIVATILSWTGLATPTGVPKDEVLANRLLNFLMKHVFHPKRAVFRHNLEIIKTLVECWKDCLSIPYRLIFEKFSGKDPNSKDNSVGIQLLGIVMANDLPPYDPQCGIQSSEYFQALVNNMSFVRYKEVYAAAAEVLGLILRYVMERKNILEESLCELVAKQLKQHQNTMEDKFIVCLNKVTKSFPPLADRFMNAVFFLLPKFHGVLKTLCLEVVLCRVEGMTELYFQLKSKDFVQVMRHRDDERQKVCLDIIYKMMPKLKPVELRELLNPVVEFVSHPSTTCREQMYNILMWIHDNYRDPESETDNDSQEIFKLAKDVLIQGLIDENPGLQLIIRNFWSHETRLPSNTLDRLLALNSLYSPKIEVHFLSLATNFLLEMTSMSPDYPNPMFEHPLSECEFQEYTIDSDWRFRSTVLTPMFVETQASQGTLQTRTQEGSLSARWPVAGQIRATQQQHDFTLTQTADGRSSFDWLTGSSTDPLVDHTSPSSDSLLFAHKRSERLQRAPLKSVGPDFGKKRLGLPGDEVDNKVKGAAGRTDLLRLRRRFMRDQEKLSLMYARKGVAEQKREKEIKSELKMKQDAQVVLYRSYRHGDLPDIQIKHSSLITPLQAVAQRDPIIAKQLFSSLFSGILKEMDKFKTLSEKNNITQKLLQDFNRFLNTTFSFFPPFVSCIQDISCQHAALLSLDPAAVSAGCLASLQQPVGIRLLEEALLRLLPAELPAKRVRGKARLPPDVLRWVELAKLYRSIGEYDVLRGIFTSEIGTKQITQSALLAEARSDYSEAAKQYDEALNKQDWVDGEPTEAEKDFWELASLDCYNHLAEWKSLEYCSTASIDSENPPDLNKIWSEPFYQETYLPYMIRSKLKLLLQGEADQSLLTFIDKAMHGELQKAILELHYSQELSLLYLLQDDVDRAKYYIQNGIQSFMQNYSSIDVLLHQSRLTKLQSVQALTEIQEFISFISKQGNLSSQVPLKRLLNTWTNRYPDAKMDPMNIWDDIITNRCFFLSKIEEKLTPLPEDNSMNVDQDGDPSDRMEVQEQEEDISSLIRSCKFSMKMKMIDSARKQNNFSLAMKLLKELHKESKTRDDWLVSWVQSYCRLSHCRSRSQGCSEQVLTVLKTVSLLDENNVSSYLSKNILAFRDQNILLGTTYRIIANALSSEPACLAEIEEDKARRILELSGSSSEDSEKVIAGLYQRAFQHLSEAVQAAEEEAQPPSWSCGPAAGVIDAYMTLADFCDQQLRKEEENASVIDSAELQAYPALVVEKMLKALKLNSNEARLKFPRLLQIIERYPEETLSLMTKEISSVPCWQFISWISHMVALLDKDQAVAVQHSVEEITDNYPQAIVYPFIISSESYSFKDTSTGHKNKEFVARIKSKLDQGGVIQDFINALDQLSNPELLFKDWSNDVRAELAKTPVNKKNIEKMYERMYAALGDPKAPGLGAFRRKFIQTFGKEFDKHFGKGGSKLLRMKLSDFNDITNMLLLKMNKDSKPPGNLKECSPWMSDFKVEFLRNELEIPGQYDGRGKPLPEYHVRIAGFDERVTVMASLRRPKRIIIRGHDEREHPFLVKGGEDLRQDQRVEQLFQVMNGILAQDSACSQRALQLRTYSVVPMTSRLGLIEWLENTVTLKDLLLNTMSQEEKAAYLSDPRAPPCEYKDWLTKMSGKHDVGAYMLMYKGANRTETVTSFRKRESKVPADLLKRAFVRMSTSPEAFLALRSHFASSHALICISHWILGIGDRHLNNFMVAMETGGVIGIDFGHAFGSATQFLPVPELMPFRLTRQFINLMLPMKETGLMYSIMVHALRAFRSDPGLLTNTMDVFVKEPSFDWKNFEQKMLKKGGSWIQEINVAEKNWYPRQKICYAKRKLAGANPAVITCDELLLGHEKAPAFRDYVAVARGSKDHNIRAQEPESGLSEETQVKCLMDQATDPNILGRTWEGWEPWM

target: T1, Strep-TER (trans-2-enoyl-CoA reductase with an N-terminal Strep-tag) (human) (UniProt Q9NZ01); assay: affinity purification with mass spectrometry; Triton X-100 extracts of Strep-TER-expressing or parental HEK293 cells applied to Strep-Tactin Sepharose, buffer A (20 mM Tris HCl pH 8.0, 150 mM NaCl, 1 mM DTT, 2 mM MgCl2, 1 mM CaCl2) with 1% Triton X-100; eluted with desthiobiotin; silver-stained bands cut out, LC-MS/MS
T1 sequence: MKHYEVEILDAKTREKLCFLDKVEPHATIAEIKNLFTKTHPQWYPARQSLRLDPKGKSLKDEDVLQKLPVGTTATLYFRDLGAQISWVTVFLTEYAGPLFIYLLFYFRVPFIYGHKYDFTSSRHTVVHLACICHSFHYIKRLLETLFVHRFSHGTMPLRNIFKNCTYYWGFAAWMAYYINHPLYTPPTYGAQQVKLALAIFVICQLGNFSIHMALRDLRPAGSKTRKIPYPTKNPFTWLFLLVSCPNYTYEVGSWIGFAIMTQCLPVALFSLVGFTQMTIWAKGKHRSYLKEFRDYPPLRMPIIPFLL

| Substance | binding |
| --- | --- |
| nuclear pore complex protein Nup205 (from UniProt Q92621 1-2012) | binds |
| DNA-dependent protein kinase catalytic subunit (from UniProt P78527 1-4128) (enzyme) | binds |
| β-tubulin (human (endogenous in HEK293)) | binds |

Results, then the substance that gave them:

| binding | Substance |
| --- | --- |
| binds | sarco(endo)plasmic reticulum Ca2+-ATPase 2b (SERCA2b), endogenous (from UniProt P16615-1 1-1042) (enzyme) |
| binds | protein MON2 homologue (from UniProt Q7Z3U7 1-1717) |
